Here are results for 6 molecules from publication PMC8324795.

Sequences of proteins named here, by UniProt entry; tags and fusion partners are left off.
UniProt O75396: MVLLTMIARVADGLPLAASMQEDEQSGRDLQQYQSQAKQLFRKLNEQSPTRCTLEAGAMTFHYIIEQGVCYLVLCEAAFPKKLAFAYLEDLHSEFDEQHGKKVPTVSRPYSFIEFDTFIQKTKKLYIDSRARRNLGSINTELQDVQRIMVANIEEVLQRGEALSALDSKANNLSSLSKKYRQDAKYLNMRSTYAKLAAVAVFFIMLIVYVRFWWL
UniProt O00214: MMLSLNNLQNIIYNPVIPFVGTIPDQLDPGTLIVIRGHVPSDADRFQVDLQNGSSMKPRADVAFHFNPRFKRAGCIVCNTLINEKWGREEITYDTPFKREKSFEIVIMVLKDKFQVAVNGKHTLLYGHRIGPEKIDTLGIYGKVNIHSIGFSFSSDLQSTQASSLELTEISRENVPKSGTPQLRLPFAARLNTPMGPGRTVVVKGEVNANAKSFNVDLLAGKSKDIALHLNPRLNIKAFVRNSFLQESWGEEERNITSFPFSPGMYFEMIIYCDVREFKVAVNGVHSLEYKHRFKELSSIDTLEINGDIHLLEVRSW
UniProt P61081: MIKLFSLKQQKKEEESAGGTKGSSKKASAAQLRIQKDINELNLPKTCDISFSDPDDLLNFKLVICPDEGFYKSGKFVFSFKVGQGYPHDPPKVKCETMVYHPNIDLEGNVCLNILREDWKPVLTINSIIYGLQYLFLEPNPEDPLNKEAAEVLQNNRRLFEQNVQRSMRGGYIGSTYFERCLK

Where two headings read alike, the source gives them in different places. These are yes or no findings as the source states them, for the method shown. Binding seen in cells or lysates may run through a third protein. Some entries that bind do so weakly or less than the wild type. For some assays here: Where a sequence is shown, tags or fusion partners need not be part of it.

In assay [1] the target is T1, FLAG-tagged FKBP51 (FK506-binding protein 51), expressed in SH-SY5Y cells (UniProt Q13451).
T1 sequence: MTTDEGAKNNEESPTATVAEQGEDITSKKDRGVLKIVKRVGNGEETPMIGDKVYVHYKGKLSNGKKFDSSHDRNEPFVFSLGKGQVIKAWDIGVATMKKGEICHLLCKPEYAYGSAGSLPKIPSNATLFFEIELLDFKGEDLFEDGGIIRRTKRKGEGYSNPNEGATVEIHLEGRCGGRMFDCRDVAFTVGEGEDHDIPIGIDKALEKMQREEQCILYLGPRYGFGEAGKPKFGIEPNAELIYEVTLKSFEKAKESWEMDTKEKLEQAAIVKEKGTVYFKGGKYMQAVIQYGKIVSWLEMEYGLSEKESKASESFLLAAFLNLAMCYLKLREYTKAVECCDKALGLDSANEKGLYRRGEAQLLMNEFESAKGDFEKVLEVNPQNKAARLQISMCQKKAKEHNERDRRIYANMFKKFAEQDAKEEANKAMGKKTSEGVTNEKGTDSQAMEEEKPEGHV
As to the kind of experiment: co-IP; SH-SY5Y cells 3 days after transfection; lysate in 20 mM Tris-HCl pH 8.0, 100 mM NaCl, 1 mM EDTA, 0.5% Igepal; FLAG or GFP antibody overnight at 4 °C, protein G Dynabeads; western blot; some panels with 100 nM dexamethasone or vehicle for 4 h; TRIM16-FLAG IP in WT and FKBP5 KO cells.

Assay [2] concerns the target GFP-tagged SEC22B (UniProt O75396). Described as above.
Assay [3] deals with T1, FLAG-tagged FKBP51 (FK506-binding protein 51), expressed in SH-SY5Y cells. Described as above. This is another data set of the same source.
The target of assay [4] is GFP-tagged SEC22B (UniProt O75396). The experiment in a line: co-IP; FKBP5 KO SH-SY5Y cells, GFP-tagged SEC22B IP (GFP antibody, protein G Dynabeads), 100 nM dexamethasone or vehicle for 4 h; western blot. Background: In western blotting, separated proteins are transferred to a membrane and probed.

Take “SEC22B in SH-SY5Y lysate (detected by blot in FLAG immunoprecipitates) (from UniProt O75396 1-215)”: in assay [1], the binding entry is given as “binds”.
As for “galectin-8 (GAL8) in SH-SY5Y lysate (from UniProt O00214 1-317)”, the binding result in assay [1] is on record as “binds”.
“UBC12 in SH-SY5Y lysate (from UniProt P61081 1-183)”: in assay [1], the binding entry is recorded as “binds”.

B1: FKBP51 in SH-SY5Y lysate (detected by blot in GFP-SEC22B and TRIM16 immunoprecipitates) (protein, UniProt Q13451 1-457)
chain: MTTDEGAKNNEESPTATVAEQGEDITSKKDRGVLKIVKRVGNGEETPMIGDKVYVHYKGKLSNGKKFDSSHDRNEPFVFSLGKGQVIKAWDIGVATMKKGEICHLLCKPEYAYGSAGSLPKIPSNATLFFEIELLDFKGEDLFEDGGIIRRTKRKGEGYSNPNEGATVEIHLEGRCGGRMFDCRDVAFTVGEGEDHDIPIGIDKALEKMQREEQCILYLGPRYGFGEAGKPKFGIEPNAELIYEVTLKSFEKAKESWEMDTKEKLEQAAIVKEKGTVYFKGGKYMQAVIQYGKIVSWLEMEYGLSEKESKASESFLLAAFLNLAMCYLKLREYTKAVECCDKALGLDSANEKGLYRRGEAQLLMNEFESAKGDFEKVLEVNPQNKAARLQISMCQKKAKEHNERDRRIYANMFKKFAEQDAKEEANKAMGKKTSEGVTNEKGTDSQAMEEEKPEGHV
Regarding B1, the binding result in the assay with GFP-tagged SEC22B [2] is recorded as “binds”.

B2: synaptosomal-associated protein SNAP23 in SH-SY5Y lysate (protein, UniProt O00161 1-211)
chain: MDNLSSEEIQQRAHQITDESLESTRRILGLAIESQDAGIKTITMLDEQKEQLNRIEEGLDQINKDMRETEKTLTELNKCCGLCVCPCNRTKNFESGKAYKTTWGDGGENSPCNVVSKQPGPVTNGQLQQPTTGAASGGYIKRITNDAREDEMEENLTQVGSILGNLKDMALNIGNEIDAQNPQIKRITDKADTNRDRIDIANARAKKLIDS
As for B2, the binding entry is reported as “binds” in assay [3] and “binds weakly” with GFP-tagged SEC22B [4].

B3: syntaxin 3 (STX3) in SH-SY5Y lysate (protein, UniProt Q13277 1-289)
chain: MKDRLEQLKAKQLTQDDDTDAVEIAIDNTAFMDEFFSEIEETRLNIDKISEHVEEAKKLYSIILSAPIPEPKTKDDLEQLTTEIKKRANNVRNKLKSMEKHIEEDEVRSSADLRIRKSQHSVLSRKFVEVMTKYNEAQVDFRERSKGRIQRQLEITGKKTTDEELEEMLESGNPAIFTSGIIDSQISKQALSEIEGRHKDIVRLESSIKELHDMFMDIAMLVENQGEMLDNIELNVMHTVDHVEKARDETKKAVKYQSQARKKLIIIIVLVVVLLGILALIIGLSVGLN
Turning to B3, the results for the binding entry (in assay [3]; with GFP-tagged SEC22B [4]) were “binds” and “binds weakly”, respectively.
